## Screening data

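Plate-reader measure of the Venus reporter marking one vaccinia stage in infected cells (the cell line is not named here); read time unknown.
The test concentration is not given here.
Percent change in Venus reporter signal; lower (more negative) values mean stronger inhibition of that viral stage.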

Values are in %.
How 0% and 100% were set is not given here.
Common to all entries: measured here: Venus reporter, other viral stage.
Part of the compounds only, not a random draw; the main read-out is not listed here.

* C[C@H](CO)N1C[C@H](C)[C@@H](CN(C)Cc2ccc(C(F)(F)F)cc2)Oc2ccc(NC(=O)C3CC3)cc2CC1=O | activity change (Venus) -47.89%
* C[C@@H]1CN([C@H](C)CO)C(=O)c2ccccc2-c2ccccc2CO[C@@H]1CN(C)Cc1ccc(Oc2ccccc2)cc1 | activity change (Venus) -35.97%
* CCCC#Cc1ccc2c(c1)O[C@H](CN(C)Cc1ccccc1)[C@@H](C)CN([C@H](C)CO)S2(=O)=O | activity change (Venus) -58.27%
* COc1ccc2c3c(n(C)c2c1)[C@H](CO)N(C(=O)Nc1ccc(F)cc1)CC31CCN(C(=O)CC2CC2)CC1 | activity change (Venus) -39.71%
* COc1ccc(-c2ccc([C@H]3[C@@H](C#N)N(C(=O)C4CCC4)[C@H]3CO)cc2)cc1 | activity change (Venus) -41.78%
* C[C@@H]1CCCCO[C@@H](CN(C)Cc2ccc(Cl)c(Cl)c2)[C@@H](C)CN([C@H](C)CO)C(=O)c2cc(N(C)C)ccc2O1 | activity change (Venus) -30.02%
* C[C@@H]1CN([C@H](C)CO)C(=O)c2c(c3ccccc3n2C)-c2ccccc2CO[C@H]1CN(C)Cc1cccc(F)c1 | activity change (Venus) -51.45%
* C[C@@H]1CN([C@H](C)CO)S(=O)(=O)c2ccc(C#CCC3CCCC3)cc2O[C@@H]1CN(C)C(=O)c1cnccn1 | activity change (Venus) -39.47%
* C[C@@H]1CN([C@@H](C)CO)S(=O)(=O)c2ccc(/C=C/c3ccccc3)cc2O[C@H]1CN(C)Cc1cccnc1 | activity change (Venus) -32.2%
* C[C@@H]1CN([C@H](C)CO)S(=O)(=O)c2ccc(C#Cc3ccncc3)cc2O[C@@H]1CN(C)C(=O)Nc1ccc2c(c1)OCO2 | activity change (Venus) -23.18%
* C[C@@H]1CN([C@@H](C)CO)S(=O)(=O)c2ccc(C#Cc3ccccc3F)cc2O[C@@H]1CN(C)C(=O)Cc1ccccc1 | activity change (Venus) -47.18%
* O=C(C1CCCCC1)N1CC(=O)N2[C@H](CO)[C@@H](c3ccc(-c4ccccc4F)cc3)[C@@H]2C1 | activity change (Venus) -39.55%
* COc1cccc(S(=O)(=O)N(C)C[C@@H]2OCc3ccccc3-c3c(n(C)c4ccccc34)C(=O)N([C@H](C)CO)C[C@@H]2C)c1 | activity change (Venus) -47.92%
* C[C@@H]1CN([C@H](C)CO)C(=O)c2c(c3ccccc3n2C)-c2ccccc2CO[C@H]1CN(C)Cc1ccc(Oc2ccccc2)cc1 | activity change (Venus) -27.09%
* C[C@@H]1CN([C@@H](C)CO)C(=O)Cc2cc(NC(=O)C3CCCCC3)ccc2O[C@H]1CN(C)C(=O)Nc1ccccc1 | activity change (Venus) 44.59%
* CCc1csc(N2[C@@H](C#N)[C@H](c3ccc(-c4ccc(F)cc4)cc3)[C@@H]2CO)n1 | activity change (Venus) -34.15%
* Cc1ccc(S(=O)(=O)Nc2ccc3c(c2)CC(=O)N([C@H](C)CO)C[C@H](C)[C@@H](CN(C)Cc2ccccc2)O3)cc1 | activity change (Venus) -37.43%
* C[C@H]1CN([C@@H](C)CO)S(=O)(=O)c2ccc(C#Cc3cccc(F)c3)cc2O[C@H]1CN(C)C | activity change (Venus) -47.01%
* Cc1ccc(S(=O)(=O)N(C)C[C@H]2Oc3cc(C#CC4CCCC4)ccc3S(=O)(=O)N([C@H](C)CO)C[C@H]2C)cc1 | activity change (Venus) -38.2%
* CC(C)CC#Cc1cnc2c(c1)C(=O)N([C@@H](C)CO)C[C@@H](C)[C@@H](CN(C)C(=O)c1cccc(F)c1)O2 | activity change (Venus) -36.91%
* C[C@@H]1CN([C@H](C)CO)S(=O)(=O)c2ccc(-c3ccncc3)cc2O[C@H]1CN(C)Cc1ccccc1 | activity change (Venus) -39.6%
* O=C(c1ccc2c(c1)OCO2)N1CC(=O)N2[C@H](CO)[C@H](c3ccc(C#CCC4CCCC4)cc3)[C@@H]2C1 | activity change (Venus) -79.16%
* Cc1ccc(S(=O)(=O)Nc2ccc3c(c2)C(=O)N([C@@H](C)CO)C[C@@H](C)[C@@H](CN(C)CC2CCCCC2)OCCCC[C@@H](C)O3)cc1 | activity change (Venus) -84.88%
* C[C@@H]1CCCCO[C@H](CN(C)Cc2ccncc2)[C@H](C)CN([C@H](C)CO)C(=O)c2cc(NC(=O)Nc3ccc(C(F)(F)F)cc3)ccc2O1 | activity change (Venus) -29.54%
* C[C@@H]1CCCCO[C@@H](CN(C)Cc2ccccc2)[C@H](C)CN([C@@H](C)CO)C(=O)c2cc(NC(=O)Nc3ccccc3)ccc2O1 | activity change (Venus) -54.44%
* C[C@@H]1CCCCO[C@@H](CN(C)Cc2ccc(Cl)c(Cl)c2)[C@H](C)CN([C@H](C)CO)C(=O)c2cc(NS(=O)(=O)c3cn(C)cn3)ccc2O1 | activity change (Venus) -48.84%
* Cc1ccc(-c2ccc3c(c2)O[C@@H](CN(C)C(=O)C2CCC2)[C@H](C)CN([C@H](C)CO)S3(=O)=O)cc1 | activity change (Venus) -46.49%
* COc1ccc(CN(C)C[C@@H]2OCCCC[C@H](C)Oc3ccc(NC(=O)Nc4ccc(F)cc4)cc3C(=O)N([C@H](C)CO)C[C@H]2C)cc1 | activity change (Venus) -73%
* COc1cccc(S(=O)(=O)N(C)C[C@H]2Oc3cc(C4=CCCCC4)ccc3S(=O)(=O)N([C@H](C)CO)C[C@@H]2C)c1 | activity change (Venus) -20.47%
* O=C(C[C@@H]1CC[C@H]2[C@@H](COC[C@@H](O)CN2Cc2ccc(Cl)cc2)O1)Nc1nccs1 | activity change (Venus) -16.21%
* C[C@H]1CN([C@@H](C)CO)C(=O)c2cccc(NC(=O)Nc3ccc(C(F)(F)F)cc3)c2O[C@H]1CN(C)C(=O)Nc1cccc2ccccc12 | activity change (Venus) -81.65%
* Cc1noc(C)c1S(=O)(=O)Nc1ccc2c(c1)C(=O)N([C@H](C)CO)C[C@@H](C)[C@H](CN(C)Cc1ccc(C(F)(F)F)cc1)OCCCC[C@@H](C)O2 | activity change (Venus) -82.55%
* COc1ccc(S(=O)(=O)Nc2ccc3c(c2)C(=O)N([C@H](C)CO)C[C@@H](C)[C@@H](CN(C)C(=O)C2CCCCC2)OCCCC[C@H](C)O3)cc1 | activity change (Venus) -41.53%
* O=C(C[C@H]1CC[C@H]2[C@@H](COC[C@@H](O)CN2CC2CCCCC2)O1)NCc1ccc(Cl)cc1 | activity change (Venus) -72.94%
* COc1ccc(CN(C)C[C@H]2OCCCC[C@@H](C)Oc3ccc(NC(=O)C4CCCCC4)cc3C(=O)N([C@@H](C)CO)C[C@@H]2C)cc1 | activity change (Venus) -53.61%
* O=C(Nc1ccccc1F)N1CCCCN2[C@H](CO)[C@@H](c3ccc(C4=CCCCC4)cc3)[C@H]2C1 | activity change (Venus) -57.44%
* C[C@@H]1CN([C@@H](C)CO)C(=O)c2cc(NS(=O)(=O)c3cccs3)ccc2O[C@@H](C)CCCCO[C@@H]1CN(C)Cc1ccccc1 | activity change (Venus) -32.83%

Once more, the final 5:

{"smiles": "COc1ccc(S(=O)(=O)Nc2ccc3c(c2)C(=O)N([C@H](C)CO)C[C@@H](C)[C@@H](CN(C)C(=O)C2CCCCC2)OCCCC[C@H](C)O3)cc1", "activity change (Venus) (%)": "-41.53"}
{"smiles": "O=C(C[C@H]1CC[C@H]2[C@@H](COC[C@@H](O)CN2CC2CCCCC2)O1)NCc1ccc(Cl)cc1", "activity change (Venus) (%)": "-72.94"}
{"smiles": "COc1ccc(CN(C)C[C@H]2OCCCC[C@@H](C)Oc3ccc(NC(=O)C4CCCCC4)cc3C(=O)N([C@@H](C)CO)C[C@@H]2C)cc1", "activity change (Venus) (%)": "-53.61"}
{"smiles": "O=C(Nc1ccccc1F)N1CCCCN2[C@H](CO)[C@@H](c3ccc(C4=CCCCC4)cc3)[C@H]2C1", "activity change (Venus) (%)": "-57.44"}
{"smiles": "C[C@@H]1CN([C@@H](C)CO)C(=O)c2cc(NS(=O)(=O)c3cccs3)ccc2O[C@@H](C)CCCCO[C@@H]1CN(C)Cc1ccccc1", "activity change (Venus) (%)": "-32.83"}

Source: PubChem BioAssay AID1053133 (Broad Institute, 2014).